Laboratory results: PubChem BioAssay AID248 (DTP/NCI, 2004)
The list does not hold the whole screen: it is rich in T/C values a quarter to a half above the control, in often repeated tests (any T/C) and in doses without a T/C. Other doses and runs of a compound stand elsewhere. T/C is the treated group as % of the vehicle group. Some entries give survivors of the animals treated and no T/C: the source holds a T/C of zero for them, seemingly a mark for toxic or unscored doses. Some survivor counts are full or nearly so, which does not show that the dose was tolerated: the source hardly ever lists a survival T/C far under the control, and the zero likely stands for such cases as well. Survivors were counted at the toxicity check, usually on the fifth day, unless a day is given; later deaths do not show. Schedules are NCI's codes, taken here to give the interval after Q, in days (D) or hours (H), and the number of doses after X. Where survival is the endpoint, the PubChem record calls one and a half times the control and up active, and a quarter to a half above the control has no call in these data; cut-offs in other NCI protocols can differ. Some T/C values are followed by the survivors on the day toxicity was checked, most often the fifth; where none is given, no animal had died by that day. Some doses were run more than once; the values are given in rising order.

System: L1210 leukemia ip in BDF1 mice, survival T/C
Experiment: NCI In Vivo Anticancer Drug Screen. Data for tumor model L1210 Leukemia (intraperitoneal) in B6D2F1 (BDF1) mice
Conditions: T/C endpoint: mean survival time, higher T/C = longer survival
[1] = dose: 400.0 mg/kg/injection, schedule: Q04DX003 (ip), vehicle: Klucel (hydroxypropylcellulose) (HPC)
[2] = dose: 400.0 mg/kg/injection, schedule: Q04DX003 (ip), vehicle: saline with Tween-80
[3] = dose: 400.0 mg/kg/injection, schedule: Q01DX009 (ip), vehicle: Klucel (hydroxypropylcellulose) (HPC)

C[N+](C)(C)c1ccc(/C=C2\C=Cc3ccccc32)cc1
survivor count (dose: 60.0 mg/kg/injection, schedule: Q01DX001 (ip), vehicle: carboxymethylcellulose (CMC)): 3 of 6
survivor count (dose: 75.0 mg/kg/injection, schedule: Q01DX001 (ip), vehicle: carboxymethylcellulose (CMC)): 1 of 6
survivor count (dose: 150.0 mg/kg/injection, schedule: Q01DX001 (ip), vehicle: carboxymethylcellulose (CMC)): 0 of 6
survivor count (dose: 300.0 mg/kg/injection, schedule: Q01DX001 (ip), vehicle: carboxymethylcellulose (CMC)): 0 of 6

O=S1OCC2(CO1)COS(=O)OC2 (stereo not drawn)
survivor count (dose: 6.25 mg/kg/injection, schedule: Q01DX009 (ip), vehicle: saline): 0 of 6
survivor count (dose: 12.5 mg/kg/injection, schedule: Q01DX001 (ip), vehicle: saline with Tween-80): 0 of 3
survivor count (dose: 12.5 mg/kg/injection, schedule: Q04DX003 (ip), vehicle: saline): 0 of 6
survivor count (dose: 25.0 mg/kg/injection, schedule: Q01DX001 (ip), vehicle: saline with Tween-80): 0 of 3
survivor count (dose: 25.0 mg/kg/injection, schedule: Q04DX003 (ip), vehicle: saline): 0 of 6
survivor count (dose: 50.0 mg/kg/injection, schedule: Q01DX001 (ip), vehicle: saline with Tween-80): 0 of 3
survivor count (dose: 50.0 mg/kg/injection, schedule: Q04DX003 (ip), vehicle: saline): 0 of 6
survivor count (dose: 100.0 mg/kg/injection, schedule: Q01DX001 (ip), vehicle: saline with Tween-80): 0 of 3
survivor count (dose: 100.0 mg/kg/injection, schedule: Q04DX003 (ip), vehicle: Klucel (hydroxypropylcellulose) (HPC)): 0 of 6
survivor count (dose: 200.0 mg/kg/injection, schedule: Q01DX001 (ip), vehicle: saline with Tween-80): 0 of 3
survivor count (dose: 200.0 mg/kg/injection, schedule: Q04DX003 (ip), vehicle: Klucel (hydroxypropylcellulose) (HPC)): 0 of 6
survivor count [1]: 0 of 6

CC1(CCCOc2ccccc2C(=O)NCBr)N=C(N)N=C(N)N1c1ccccc1 (stereo not drawn)
survivor count (dose: 200.0 mg/kg/injection, schedule: Q01DX001 (ip), vehicle: Klucel (hydroxypropylcellulose) (HPC)): 0 of 6
survivor count (dose: 400.0 mg/kg/injection, schedule: Q01DX001 (ip), vehicle: Klucel (hydroxypropylcellulose) (HPC)): 0 of 6

CCC(CC)NCCOC(=O)c1ccc(N)cc1
survivor count (dose: 300.0 mg/kg/injection, schedule: Q01DX001 (ip), vehicle: saline): 0 of 6

CCC(c1ccc2cc(OC)ccc2c1)C(C)(C)C(=O)F (stereo not drawn)
survivor count (dose: 100.0 mg/kg/injection, schedule: Q01DX009 (ip), vehicle: saline): 0 of 6
survivor count (dose: 200.0 mg/kg/injection, schedule: Q01DX001 (ip), vehicle: steroid suspending solution): 2 of 4
survivor count (dose: 200.0 mg/kg/injection, schedule: Q04DX003 (ip), vehicle: acetone): 0 of 6
survivor count (dose: 400.0 mg/kg/injection, schedule: Q01DX001 (ip), vehicle: steroid suspending solution): 1 of 4
survivor count (dose: 400.0 mg/kg/injection, schedule: Q04DX003 (ip), vehicle: acetone): 0 of 6

N=C(N)SCc1c(-c2ccccc2)oc(-c2ccccc2)c1CSC(=N)N
survivor count (dose: 25.0 mg/kg/injection, schedule: Q01DX009 (ip), vehicle: saline with Tween-80): 4 of 6
survivor count (dose: 50.0 mg/kg/injection, schedule: Q04DX003 (ip), vehicle: saline with Tween-80): 3 of 6
survivor count (dose: 100.0 mg/kg/injection, schedule: Q01DX001 (ip), vehicle: other): 0 of 6
survivor count (dose: 200.0 mg/kg/injection, schedule: Q01DX001 (ip), vehicle: other): 0 of 6
survivor count (dose: 400.0 mg/kg/injection, schedule: Q01DX001 (ip), vehicle: other): 0 of 6

C/C=C/COc1cc[n+]([O-])cc1
survivor count (dose: 400.0 mg/kg/injection, schedule: Q04DX003 (ip), vehicle: saline): 0 of 6

CNC(=O)c1cn(C2OC(CO)C(O)C2O)c2ncnc(N)c12 (stereo not drawn)
T/C (dose: 100.0 mg/kg/injection, schedule: Q01DX001 (ip), vehicle: water): 132 % of control
T/C (dose: 132.0 mg/kg/injection, schedule: Q01DX001 (ip), vehicle: water): 130 % of control
T/C (dose: 200.0 mg/kg/injection, schedule: Q01DX001 (ip), vehicle: water): 132 and 137 % of control [5 of 6 alive]
T/C (dose: 300.0 mg/kg/injection, schedule: Q01DX001 (ip), vehicle: water): 136 % of control

CCCCCCCCCCCCCCC(F)C(=O)OCC1OC(CO)(OC2OC(CO)C(O)C(O)C2O)C(O)C1O (stereo not drawn)
survivor count (dose: 100.0 mg/kg/injection, schedule: Q01DX009 (ip), vehicle: saline with Tween-80): 6 of 6
survivor count (dose: 200.0 mg/kg/injection, schedule: Q04DX003 (ip), vehicle: saline with Tween-80): 0 of 6
survivor count [2]: 0 of 6

CCC(CO)Nc1nc2ccccc2c2ccccc12 (stereo not drawn)
survivor count [3]: 0 of 6

c1ccc([P+](CC[P+](c2ccccc2)(c2ccccc2)c2ccccc2)(c2ccccc2)c2ccccc2)cc1
survivor count (dose: 20.0 mg/kg/injection, schedule: Q04DX003 (ip), vehicle: saline): 6 of 6
survivor count (dose: 40.0 mg/kg/injection, schedule: Q04DX003 (ip), vehicle: saline): 0 of 6

O=S(=O)(F)/C=C\c1ccccc1
survivor count (dose: 50.0 mg/kg/injection, schedule: Q01DX009 (ip), vehicle: acetone): 6 of 6
survivor count (dose: 100.0 mg/kg/injection, schedule: Q01DX009 (ip), vehicle: acetone): 6 of 6
survivor count (dose: 400.0 mg/kg/injection, schedule: Q01DX001 (ip), vehicle: acetone): 3 of 6

COC(=O)N/N=C/c1c[nH]c2ccccc12
survivor count [3]: 1 of 6

CNCCc1ccccc1
survivor count (dose: 400.0 mg/kg/injection, schedule: Q01DX001 (ip), vehicle: saline): 0 of 6

CCCCCCNC(C)=O
survivor count [2]: 0 of 6

COC(OC)c1nc(N)nc(N)c1-c1ccccc1
T/C (dose: 200.0 mg/kg/injection, schedule: Q01DX008 (ip), vehicle: Klucel (hydroxypropylcellulose) (HPC)): 127 % of control
T/C (dose: 400.0 mg/kg/injection, schedule: Q01DX008 (ip), vehicle: Klucel (hydroxypropylcellulose) (HPC)): 136 % of control

Cc1ccc(C)c(NC(=O)Oc2ccccc2F)c1
survivor count [3]: 0 of 6

CCOC(=O)C1(NC(=O)N(CCCl)N=O)CCCC1
T/C (dose: 62.0 mg/kg/injection, schedule: Q01DX001 (ip), vehicle: other): 127 % of control
survivor count (dose: 500.0 mg/kg/injection, schedule: Q01DX001 (ip), vehicle: other): 6 of 6
survivor count (dose: 750.0 mg/kg/injection, schedule: Q01DX001 (ip), vehicle: other): 6 of 6
survivor count (dose: 1000.0 mg/kg/injection, schedule: Q01DX001 (ip), vehicle: other): 3 of 6
survivor count (dose: 2000.0 mg/kg/injection, schedule: Q01DX001 (ip), vehicle: other): 0 of 6

CCCCOC(=S)SSC(=S)OCCCC
survivor count (dose: 200.0 mg/kg/injection, schedule: Q01DX009 (ip), vehicle: saline with Tween-80): 2 of 6
survivor count (dose: 400.0 mg/kg/injection, schedule: Q01DX009 (ip), vehicle: saline with Tween-80): 0 of 6

CC1=CC(=O)N(CO)C1=O
survivor count (dose: 100.0 mg/kg/injection, schedule: Q04DX003 (ip), vehicle: water): 4 of 6

O=C(O)/C=C/C(=O)Nc1cc(Cl)cc2c1-c1c(Cl)cc(Cl)cc1C2=O
survivor count [1]: 1 of 6
